{"source": "PubChem BioAssay AID1259405, NCATS | 2018", "screen": "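Knock-downs that lift recombinant protein yield in hamster ovary cells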 (primary screen)", "cells": "Chinese hamster CHO-K1 ovary cells with stable secreted eGFP expression", "reagents": "single siRNA against mouse genes, 0.8 pmol siRNA per well (2 µl of 400 nM stock)", "timing": "3 days", "measured": "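Per-well intracellular GFP measured by laser scanning cytometry, plus viability from ATP luminescence, each relative to plate median of non-targeting control wells, in %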", "direction": "GFP, % of control: higher = more GFP per well, higher productivity; viability (ATP), % of control: higher = more viable cells (more ATP)", "call rule": "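a knock-down is called active if GFP reaches 120% or more of non-targeting control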", "note": "The deposit covers about 50,000 reagents; this is an unselected part. About 4,000 of all reagents (8%) were called active. 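Mouse siRNA library applied to hamster cells; one well for each siRNA.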 Reagents against one gene are numbered here. No sequences are given here."}
{"Gene": "Prl8a1", "reagent no.": 1, "GFP, % of control": 102, "viability (ATP), % of control": 81.6, "Call": "inactive"}
{"Gene": "Prl8a1", "reagent no.": 2, "GFP, % of control": 108, "viability (ATP), % of control": 94.1, "Call": "inactive"}
{"Gene": "Prl8a1", "reagent no.": 3, "GFP, % of control": 76, "viability (ATP), % of control": 65.9, "Call": "inactive"}
{"Gene": "Dbi", "reagent no.": 1, "GFP, % of control": 143, "viability (ATP), % of control": 124, "Call": "active"}
{"Gene": "Dbi", "reagent no.": 2, "GFP, % of control": 57.2, "viability (ATP), % of control": 65.8, "Call": "inactive"}
{"Gene": "Dbi", "reagent no.": 3, "GFP, % of control": 17.6, "viability (ATP), % of control": 27.5, "Call": "inactive"}
{"Gene": "Cited2", "reagent no.": 1, "GFP, % of control": 91.4, "viability (ATP), % of control": 75.9, "Call": "inactive"}
{"Gene": "Cited2", "reagent no.": 2, "GFP, % of control": 56.5, "viability (ATP), % of control": 42.6, "Call": "inactive"}
{"Gene": "Hs3st6", "reagent no.": 1, "GFP, % of control": 149, "viability (ATP), % of control": 78.7, "Call": "active"}
{"Gene": "Hs3st6", "reagent no.": 2, "GFP, % of control": 84.5, "viability (ATP), % of control": 100, "Call": "inactive"}
{"Gene": "Hs3st6", "reagent no.": 3, "GFP, % of control": 50.6, "viability (ATP), % of control": 48.6, "Call": "inactive"}
{"Gene": "Cpne1", "reagent no.": 1, "GFP, % of control": 64.5, "viability (ATP), % of control": 101, "Call": "inactive"}
{"Gene": "Cpne1", "reagent no.": 2, "GFP, % of control": 40, "viability (ATP), % of control": 88.8, "Call": "inactive"}
{"Gene": "Cpne1", "reagent no.": 3, "GFP, % of control": 95.1, "viability (ATP), % of control": 116, "Call": "inactive"}
{"Gene": "Mkrn3", "reagent no.": 1, "GFP, % of control": 63.5, "viability (ATP), % of control": 75.2, "Call": "inactive"}
{"Gene": "Mkrn3", "reagent no.": 2, "GFP, % of control": 93.7, "viability (ATP), % of control": 65.2, "Call": "inactive"}
{"Gene": "Mkrn3", "reagent no.": 3, "GFP, % of control": 77, "viability (ATP), % of control": 68.6, "Call": "inactive"}
{"Gene": "Atp11c", "reagent no.": 1, "GFP, % of control": 55.5, "viability (ATP), % of control": 53.9, "Call": "inactive"}
{"Gene": "Atp11c", "reagent no.": 2, "GFP, % of control": 55.4, "viability (ATP), % of control": 63.1, "Call": "inactive"}
{"Gene": "Atp11c", "reagent no.": 3, "GFP, % of control": 45.6, "viability (ATP), % of control": 65.4, "Call": "inactive"}
{"Gene": "Zfp52", "reagent no.": 1, "GFP, % of control": 39.1, "viability (ATP), % of control": 46.5, "Call": "inactive"}
{"Gene": "Zfp52", "reagent no.": 2, "GFP, % of control": 61.5, "viability (ATP), % of control": 70.4, "Call": "inactive"}
{"Gene": "Zfp52", "reagent no.": 3, "GFP, % of control": 85.3, "viability (ATP), % of control": 59.7, "Call": "inactive"}
{"Gene": "Krr1", "reagent no.": 1, "GFP, % of control": 82.1, "viability (ATP), % of control": 83.1, "Call": "inactive"}
{"Gene": "Krr1", "reagent no.": 2, "GFP, % of control": 190, "viability (ATP), % of control": 81.8, "Call": "active"}
{"Gene": "Krr1", "reagent no.": 3, "GFP, % of control": 47.6, "viability (ATP), % of control": 62.6, "Call": "inactive"}
{"Gene": "Smarcd3", "reagent no.": 1, "GFP, % of control": 46, "viability (ATP), % of control": 55.6, "Call": "inactive"}
{"Gene": "Smarcd3", "reagent no.": 2, "GFP, % of control": 71.3, "viability (ATP), % of control": 63.1, "Call": "inactive"}
{"Gene": "Smarcd3", "reagent no.": 3, "GFP, % of control": 42.8, "viability (ATP), % of control": 54.4, "Call": "inactive"}

An excerpt of the results above, for reference:
{"Gene": "Hs3st6", "reagent no.": 2, "GFP, % of control": 84.5, "viability (ATP), % of control": 100, "Call": "inactive"}
{"Gene": "Hs3st6", "reagent no.": 3, "GFP, % of control": 50.6, "viability (ATP), % of control": 48.6, "Call": "inactive"}
{"Gene": "Cpne1", "reagent no.": 1, "GFP, % of control": 64.5, "viability (ATP), % of control": 101, "Call": "inactive"}
{"Gene": "Cpne1", "reagent no.": 2, "GFP, % of control": 40, "viability (ATP), % of control": 88.8, "Call": "inactive"}
{"Gene": "Cpne1", "reagent no.": 3, "GFP, % of control": 95.1, "viability (ATP), % of control": 116, "Call": "inactive"}
{"Gene": "Mkrn3", "reagent no.": 1, "GFP, % of control": 63.5, "viability (ATP), % of control": 75.2, "Call": "inactive"}
{"Gene": "Mkrn3", "reagent no.": 2, "GFP, % of control": 93.7, "viability (ATP), % of control": 65.2, "Call": "inactive"}
{"Gene": "Mkrn3", "reagent no.": 3, "GFP, % of control": 77, "viability (ATP), % of control": 68.6, "Call": "inactive"}

The listing continues.
{"Gene": "Mrpl58", "reagent no.": 1, "GFP, % of control": 65.8, "viability (ATP), % of control": 79.3, "Call": "inactive"}
{"Gene": "Mrpl58", "reagent no.": 2, "GFP, % of control": 43.4, "viability (ATP), % of control": 44.5, "Call": "inactive"}
{"Gene": "Mrpl58", "reagent no.": 3, "GFP, % of control": 67, "viability (ATP), % of control": 84.7, "Call": "inactive"}
{"Gene": "Taldo1", "reagent no.": 1, "GFP, % of control": 148, "viability (ATP), % of control": 111, "Call": "active"}
{"Gene": "Taldo1", "reagent no.": 2, "GFP, % of control": 133, "viability (ATP), % of control": 128, "Call": "active"}
{"Gene": "Taldo1", "reagent no.": 3, "GFP, % of control": 117, "viability (ATP), % of control": 118, "Call": "inactive"}
{"Gene": "Epcip", "reagent no.": 1, "GFP, % of control": 107, "viability (ATP), % of control": 122, "Call": "inactive"}
{"Gene": "Epcip", "reagent no.": 2, "GFP, % of control": 105, "viability (ATP), % of control": 70.7, "Call": "inactive"}
{"Gene": "Epcip", "reagent no.": 3, "GFP, % of control": 77.5, "viability (ATP), % of control": 82.4, "Call": "inactive"}
{"Gene": "Gm5533", "reagent no.": 1, "GFP, % of control": 79, "viability (ATP), % of control": 80.3, "Call": "inactive"}
{"Gene": "Gm5533", "reagent no.": 2, "GFP, % of control": 97.8, "viability (ATP), % of control": 65.1, "Call": "inactive"}
{"Gene": "Gm5533", "reagent no.": 3, "GFP, % of control": 50.5, "viability (ATP), % of control": 43.8, "Call": "inactive"}
{"Gene": "Pramel52-ps", "reagent no.": 1, "GFP, % of control": 68.3, "viability (ATP), % of control": 67.2, "Call": "inactive"}
{"Gene": "Pramel52-ps", "reagent no.": 2, "GFP, % of control": 31.4, "viability (ATP), % of control": 55.4, "Call": "inactive"}
{"Gene": "Pramel52-ps", "reagent no.": 3, "GFP, % of control": 42, "viability (ATP), % of control": 76.1, "Call": "inactive"}
{"Gene": "Iars1", "reagent no.": 1, "GFP, % of control": 70, "viability (ATP), % of control": 80.8, "Call": "inactive"}
{"Gene": "Iars1", "reagent no.": 2, "GFP, % of control": 54.1, "viability (ATP), % of control": 77.9, "Call": "inactive"}
{"Gene": "Nckap5l", "reagent no.": 1, "GFP, % of control": 29.6, "viability (ATP), % of control": 67.6, "Call": "inactive"}
{"Gene": "Nckap5l", "reagent no.": 2, "GFP, % of control": 43.3, "viability (ATP), % of control": 34.2, "Call": "inactive"}
{"Gene": "Nckap5l", "reagent no.": 3, "GFP, % of control": 68.8, "viability (ATP), % of control": 65.6, "Call": "inactive"}
{"Gene": "Sp7", "reagent no.": 1, "GFP, % of control": 100, "viability (ATP), % of control": 72.1, "Call": "inactive"}
{"Gene": "Sp7", "reagent no.": 2, "GFP, % of control": 75.1, "viability (ATP), % of control": 78.6, "Call": "inactive"}
{"Gene": "Sp7", "reagent no.": 3, "GFP, % of control": 81, "viability (ATP), % of control": 96.8, "Call": "inactive"}
